{"source": "the supplement of paper PMC8728848", "binders": {"B1": {"name": "Aap brpt (Staphylococcus epidermidis) (protein)", "chain": "VDGDPITSTEEIPFDKKREFDPNLAPGTEKVVQKGEPGTKTITTPTTKNPLTGEKVGEGEPTEKITKQPVDEIVHYGGEEIKTGHKDEFDPNAPKGSQTTQPGKPGVKNPDTGEVVTPPVDDVTKYGPVDGDPITSTEEIPFDKKREFDPNLAPGTEKVVQKGEPGTKTITTPTTKNPLTGEKVGEGEPTEKITKQPVDEIVHYGGEEIKPGHKDEFDPNAPKGSQEDVPGKPGVKNPDTGEVVTPPVDDVTKYGPVDGDSITSTEEIPFDKKREFDPNLAPGTEKVVQKGEPGTKTITTPTTKNPLTGEKVGEGEPTEKITKQPVDEIVHYGGEQIPQGHKDEFDPNAPVDSKTEVPGKPGVKNPDTGEVVTPPVDDVTKYGPVDGDSITSTEEIPFDKKREFDPNLAPGTEKVVQKGEPGTKTITTPTTKNPLTGEKVGEGKSTEKVTKQPVDEIVEYGPTK"}}, "experiment_in_all_cases": "glycan array binding signal (z-score within array); higher = stronger binding", "conditions_in_all_cases": "glycan notation: IUPAC condensed, linker removed", "key": {"[1]": {"target": "Fuc(a1-2)Gal(b1-4)[Fuc(a1-3)]GlcNAc(b1-2)Man(a1-3)[Fuc(a1-2)Gal(b1-4)[Fuc(a1-3)]GlcNAc(b1-2)Man(a1-6)]Man(b1-4)GlcNAc(b1-4)[Fuc(a1-6)]GlcNAc", "outline": "(§1)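 Negative Z-scores can be read as non-binding. The Z-score is calculated within each array and then averaged across arrays of one protein sequence at different concentrations or buffers and across linkers. Arrays, 3228 in all, were curated from the Consortium for Functional Glycomics database and kept only where the protein sequence was available.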"}, "[2]": {"target": "Fuc(a1-2)Gal(b1-4)[Fuc(a1-3)]GlcNAc(b1-2)[Fuc(a1-2)Gal(b1-4)[Fuc(a1-3)]GlcNAc(b1-4)]Man(a1-3)[Fuc(a1-2)Gal(b1-4)[Fuc(a1-3)]GlcNAc(b1-2)Man(a1-6)]Man(b1-4)GlcNAc(b1-4)GlcNAc", "outline": "as §1"}, "[3]": {"target": "Fuc(a1-2)Gal(b1-4)[Fuc(a1-3)]GlcNAc(b1-3)Gal(b1-4)[Fuc(a1-3)]GlcNAc", "outline": "as §1"}, "[4]": {"target": "Fuc(a1-2)Gal(b1-4)[Fuc(a1-3)]GlcNAc(b1-3)Gal(b1-4)[Fuc(a1-3)]GlcNAc(b1-3)Gal(b1-4)[Fuc(a1-3)]GlcNAc", "outline": "as §1"}, "[5]": {"target": "Fuc(a1-2)Gal(b1-4)[Fuc(a1-3)]GlcNAc(b1-3)GalNAc", "outline": "as §1"}, "[6]": {"target": "Fuc(a1-2)Gal(b1-4)[Fuc(a1-3)]GlcNAc(b1-3)[Neu5Ac(a2-6)Gal(b1-4)GlcNAc(b1-6)]Gal(b1-4)Glc", "outline": "as §1"}, "[7]": {"target": "Fuc(a1-2)Gal3S(b1-4)GlcNAc", "outline": "as §1"}, "[8]": {"target": "Fuc(a1-2)Gal6S(b1-3)GlcNAc", "outline": "as §1"}, "[9]": {"target": "Fuc(a1-2)Gal6S(b1-3)GlcNAc6S", "outline": "as §1"}, "[10]": {"target": "Fuc(a1-2)Gal6S(b1-4)Glc", "outline": "as §1"}, "[11]": {"target": "Fuc(a1-2)Gal6S(b1-4)Glc6S", "outline": "as §1"}, "[12]": {"target": "Fuc(a1-2)[Gal(a1-3)]Gal", "outline": "as §1"}, "[13]": {"target": "Fuc(a1-2)[Gal(a1-3)]Gal(b1-3)GalNAc", "outline": "as §1"}, "[14]": {"target": "Fuc(a1-2)[Gal(a1-3)]Gal(b1-3)GalNAc(b1-3)Gal(a1-4)Gal(b1-4)Glc", "outline": "as §1"}, "[15]": {"target": "Fuc(a1-2)[Gal(a1-3)]Gal(b1-3)GlcNAc", "outline": "as §1"}, "[16]": {"target": "Fuc(a1-2)[Gal(a1-3)]Gal(b1-3)GlcNAc(b1-2)Man(a1-3)[Fuc(a1-2)[Gal(a1-3)]Gal(b1-3)GlcNAc(b1-2)Man(a1-6)]Man(b1-4)GlcNAc(b1-4)GlcNAc", "outline": "as §1"}, "[17]": {"target": "Fuc(a1-2)[Gal(a1-3)]Gal(b1-3)GlcNAc(b1-2)Man(a1-3)[Fuc(a1-2)[Gal(a1-3)]Gal(b1-3)GlcNAc(b1-2)Man(a1-6)]Man(b1-4)GlcNAc(b1-4)[Fuc(a1-6)]GlcNAc", "outline": "as §1"}, "[18]": {"target": "Fuc(a1-2)[Gal(a1-3)]Gal(b1-3)GlcNAc(b1-3)GalNAc", "outline": "as §1"}, "[19]": {"target": "Fuc(a1-2)[Gal(a1-3)]Gal(b1-3)GlcNAc(b1-6)GalNAc", "outline": "as §1"}, "[20]": {"target": "Fuc(a1-2)[Gal(a1-3)]Gal(b1-4)Glc", "outline": "as §1"}, "[21]": {"target": "Fuc(a1-2)[Gal(a1-3)]Gal(b1-4)GlcNAc", "outline": "as §1"}, "[22]": {"target": "Fuc(a1-2)[Gal(a1-3)]Gal(b1-4)GlcNAc(b1-2)Man", "outline": "as §1"}, "[23]": {"target": "Fuc(a1-2)[Gal(a1-3)]Gal(b1-4)GlcNAc(b1-2)Man(a1-3)[Fuc(a1-2)[Gal(a1-3)]Gal(b1-4)GlcNAc(b1-2)Man(a1-6)]Man(b1-4)GlcNAc(b1-4)GlcNAc", "outline": "as §1"}, "[24]": {"target": "Fuc(a1-2)[Gal(a1-3)]Gal(b1-4)GlcNAc(b1-2)Man(a1-3)[Fuc(a1-2)[Gal(a1-3)]Gal(b1-4)GlcNAc(b1-2)Man(a1-6)]Man(b1-4)GlcNAc(b1-4)[Fuc(a1-6)]GlcNAc", "outline": "as §1"}, "[25]": {"target": "Fuc(a1-2)[Gal(a1-3)]Gal(b1-4)GlcNAc(b1-3)GalNAc", "outline": "as §1"}, "[26]": {"target": "Fuc(a1-2)[Gal(a1-3)]Gal(b1-4)GlcNAc(b1-3)[Fuc(a1-2)[Gal(a1-3)]Gal(b1-4)GlcNAc(b1-6)]GalNAc", "outline": "as §1"}, "[27]": {"target": "Fuc(a1-2)[Gal(a1-3)]Gal(b1-4)GlcNAc(b1-6)GalNAc", "outline": "as §1"}, "[28]": {"target": "Fuc(a1-2)[Gal(a1-3)]Gal(b1-4)[Fuc(a1-3)]Glc", "outline": "as §1"}, "[29]": {"target": "Fuc(a1-2)[Gal(a1-3)]Gal(b1-4)[Fuc(a1-3)]GlcNAc", "outline": "as §1"}, "[30]": {"target": "Fuc(a1-2)[Gal(a1-3)]Gal(b1-4)[Fuc(a1-3)]GlcNAc(b1-3)GalNAc", "outline": "as §1"}, "[31]": {"target": "Fuc(a1-2)[Gal(a1-4)]Gal(b1-4)GlcNAc", "outline": "as §1"}, "[32]": {"target": "Fuc(a1-2)[GalNAc(a1-3)]Gal", "outline": "as §1"}, "[33]": {"target": "Fuc(a1-2)[GalNAc(a1-3)]Gal(b1-3)GalNAc(a1-3)[Fuc(a1-2)]Gal(b1-4)GlcNAc", "outline": "as §1"}, "[34]": {"target": "Fuc(a1-2)[GalNAc(a1-3)]Gal(b1-3)GalNAc(b1-3)Gal(a1-4)Gal(b1-4)Glc", "outline": "as §1"}, "[35]": {"target": "Fuc(a1-2)[GalNAc(a1-3)]Gal(b1-3)GlcNAc", "outline": "as §1"}, "[36]": {"target": "Fuc(a1-2)[GalNAc(a1-3)]Gal(b1-3)GlcNAc(b1-2)Man(a1-3)[Fuc(a1-2)[GalNAc(a1-3)]Gal(b1-3)GlcNAc(b1-2)Man(a1-6)]Man(b1-4)GlcNAc(b1-4)GlcNAc", "outline": "as §1"}, "[37]": {"target": "Fuc(a1-2)[GalNAc(a1-3)]Gal(b1-3)GlcNAc(b1-2)Man(a1-3)[Fuc(a1-2)[GalNAc(a1-3)]Gal(b1-3)GlcNAc(b1-2)Man(a1-6)]Man(b1-4)GlcNAc(b1-4)[Fuc(a1-6)]GlcNAc", "outline": "as §1"}, "[38]": {"target": "Fuc(a1-2)[GalNAc(a1-3)]Gal(b1-3)GlcNAc(b1-3)GalNAc", "outline": "as §1"}}, "note": "The other results are listed elsewhere or left out.", "data": [{"binder": "B1", "values": [{"measurement": "glycan array binding signal (z-score)", "setting": "[1]", "value": -2.06}, {"measurement": "glycan array binding signal (z-score)", "setting": "[2]", "value": 1.57}, {"measurement": "glycan array binding signal (z-score)", "setting": "[3]", "value": -0.951}, {"measurement": "glycan array binding signal (z-score)", "setting": "[4]", "value": 0.423}, {"measurement": "glycan array binding signal (z-score)", "setting": "[5]", "value": 0.691}, {"measurement": "glycan array binding signal (z-score)", "setting": "[6]", "value": -1.18}, {"measurement": "glycan array binding signal (z-score)", "setting": "[7]", "value": 0.096}, {"measurement": "glycan array binding signal (z-score)", "setting": "[8]", "value": -0.658}, {"measurement": "glycan array binding signal (z-score)", "setting": "[9]", "value": 0.332}, {"measurement": "glycan array binding signal (z-score)", "setting": "[10]", "value": 0.449}, {"measurement": "glycan array binding signal (z-score)", "setting": "[11]", "value": 0.217}, {"measurement": "glycan array binding signal (z-score)", "setting": "[12]", "value": -0.899}, {"measurement": "glycan array binding signal (z-score)", "setting": "[13]", "value": 1.31}, {"measurement": "glycan array binding signal (z-score)", "setting": "[14]", "value": 0.94}, {"measurement": "glycan array binding signal (z-score)", "setting": "[15]", "value": 0.297}, {"measurement": "glycan array binding signal (z-score)", "setting": "[16]", "value": 0.588}, {"measurement": "glycan array binding signal (z-score)", "setting": "[17]", "value": 0.53}, {"measurement": "glycan array binding signal (z-score)", "setting": "[18]", "value": -0.07}, {"measurement": "glycan array binding signal (z-score)", "setting": "[19]", "value": -1.34}, {"measurement": "glycan array binding signal (z-score)", "setting": "[20]", "value": -0.658}, {"measurement": "glycan array binding signal (z-score)", "setting": "[21]", "value": 0.353}, {"measurement": "glycan array binding signal (z-score)", "setting": "[22]", "value": 1.05}, {"measurement": "glycan array binding signal (z-score)", "setting": "[23]", "value": -0.639}, {"measurement": "glycan array binding signal (z-score)", "setting": "[24]", "value": -1.31}, {"measurement": "glycan array binding signal (z-score)", "setting": "[25]", "value": 0.749}, {"measurement": "glycan array binding signal (z-score)", "setting": "[26]", "value": 0.447}, {"measurement": "glycan array binding signal (z-score)", "setting": "[27]", "value": 0.142}, {"measurement": "glycan array binding signal (z-score)", "setting": "[28]", "value": -0.313}, {"measurement": "glycan array binding signal (z-score)", "setting": "[29]", "value": -0.457}, {"measurement": "glycan array binding signal (z-score)", "setting": "[30]", "value": -1.01}, {"measurement": "glycan array binding signal (z-score)", "setting": "[31]", "value": -0.889}, {"measurement": "glycan array binding signal (z-score)", "setting": "[32]", "value": 0.623}, {"measurement": "glycan array binding signal (z-score)", "setting": "[33]", "value": -1.01}, {"measurement": "glycan array binding signal (z-score)", "setting": "[34]", "value": -0.753}, {"measurement": "glycan array binding signal (z-score)", "setting": "[35]", "value": -0.813}, {"measurement": "glycan array binding signal (z-score)", "setting": "[36]", "value": -0.132}, {"measurement": "glycan array binding signal (z-score)", "setting": "[37]", "value": 0.816}, {"measurement": "glycan array binding signal (z-score)", "setting": "[38]", "value": 0.236}]}]}
